Test results reported in publication PMC5120349, “Reconstitution of Targeted Deadenylation by the Ccr4-Not Complex and the YTH Domain Protein Mmi1”.
Results are given in words; binding and its absence hold for the method and conditions named. Some entries that bind do so weakly or less than the wild type. For some assays here: Where a sequence is shown, tags or fusion partners need not be part of it. Blank lines part the entries; values can stand above or below the molecule they belong to.

Amino acid sequences for entries named in this document (tags omitted).
UniProt P87112: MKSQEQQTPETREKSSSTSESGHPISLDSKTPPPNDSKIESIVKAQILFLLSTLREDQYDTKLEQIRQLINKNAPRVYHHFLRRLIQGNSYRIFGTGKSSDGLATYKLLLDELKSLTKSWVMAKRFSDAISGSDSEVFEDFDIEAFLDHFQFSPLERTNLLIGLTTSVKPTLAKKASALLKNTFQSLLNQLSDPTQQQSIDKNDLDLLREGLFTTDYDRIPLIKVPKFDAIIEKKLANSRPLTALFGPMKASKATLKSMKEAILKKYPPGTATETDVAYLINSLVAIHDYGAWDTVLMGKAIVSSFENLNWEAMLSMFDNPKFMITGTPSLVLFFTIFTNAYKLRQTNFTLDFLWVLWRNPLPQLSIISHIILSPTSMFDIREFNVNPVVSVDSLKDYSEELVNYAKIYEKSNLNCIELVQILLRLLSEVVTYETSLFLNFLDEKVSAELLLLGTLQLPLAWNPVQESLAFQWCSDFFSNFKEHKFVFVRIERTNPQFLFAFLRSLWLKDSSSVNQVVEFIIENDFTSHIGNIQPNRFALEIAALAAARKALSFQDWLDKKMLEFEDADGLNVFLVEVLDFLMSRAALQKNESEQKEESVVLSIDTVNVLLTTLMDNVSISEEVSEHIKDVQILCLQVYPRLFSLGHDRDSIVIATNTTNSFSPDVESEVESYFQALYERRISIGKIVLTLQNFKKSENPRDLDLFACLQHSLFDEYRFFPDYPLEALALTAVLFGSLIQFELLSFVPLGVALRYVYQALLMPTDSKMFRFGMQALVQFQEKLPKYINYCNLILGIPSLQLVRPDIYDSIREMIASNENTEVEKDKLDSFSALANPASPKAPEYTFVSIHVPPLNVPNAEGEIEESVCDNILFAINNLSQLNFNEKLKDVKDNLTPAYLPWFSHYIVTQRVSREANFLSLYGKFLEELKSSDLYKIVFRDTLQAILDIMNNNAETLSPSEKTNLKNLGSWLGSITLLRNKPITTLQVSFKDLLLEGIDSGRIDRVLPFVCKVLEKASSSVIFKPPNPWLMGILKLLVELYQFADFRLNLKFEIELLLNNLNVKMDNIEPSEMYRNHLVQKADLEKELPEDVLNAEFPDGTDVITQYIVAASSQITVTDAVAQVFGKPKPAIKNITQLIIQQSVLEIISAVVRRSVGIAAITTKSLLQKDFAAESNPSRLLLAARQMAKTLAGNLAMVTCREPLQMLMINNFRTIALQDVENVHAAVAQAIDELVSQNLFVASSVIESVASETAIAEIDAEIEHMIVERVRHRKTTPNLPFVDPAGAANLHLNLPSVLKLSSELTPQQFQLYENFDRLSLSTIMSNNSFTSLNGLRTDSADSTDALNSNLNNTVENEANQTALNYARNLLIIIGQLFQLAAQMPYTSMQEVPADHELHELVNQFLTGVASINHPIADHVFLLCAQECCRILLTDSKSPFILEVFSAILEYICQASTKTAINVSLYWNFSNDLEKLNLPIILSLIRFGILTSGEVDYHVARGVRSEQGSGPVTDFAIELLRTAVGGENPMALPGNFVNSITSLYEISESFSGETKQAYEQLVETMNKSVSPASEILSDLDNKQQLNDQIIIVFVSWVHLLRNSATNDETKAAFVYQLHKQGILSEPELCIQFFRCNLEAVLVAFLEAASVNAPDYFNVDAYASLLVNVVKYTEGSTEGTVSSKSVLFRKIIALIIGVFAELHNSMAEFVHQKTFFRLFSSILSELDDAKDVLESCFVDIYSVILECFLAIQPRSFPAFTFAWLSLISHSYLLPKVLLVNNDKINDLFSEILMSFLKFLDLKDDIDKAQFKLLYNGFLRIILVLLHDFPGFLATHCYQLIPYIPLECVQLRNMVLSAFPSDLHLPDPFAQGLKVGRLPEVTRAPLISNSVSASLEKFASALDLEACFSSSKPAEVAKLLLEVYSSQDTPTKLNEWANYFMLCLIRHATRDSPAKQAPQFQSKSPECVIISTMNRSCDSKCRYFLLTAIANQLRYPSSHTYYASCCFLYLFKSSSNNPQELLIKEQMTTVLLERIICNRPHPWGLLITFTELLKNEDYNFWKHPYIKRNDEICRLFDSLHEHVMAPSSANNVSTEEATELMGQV

What was measured:
[1] = target: T1, Caf1 (StrepII-tagged, recombinant, S. pombe) (S. pombe) (UniProt O74856); experiment: SEC-MALS; purified recombinant Ccr4-Not complex (co-expressed in Sf9); monodisperse; both purified
T1 sequence: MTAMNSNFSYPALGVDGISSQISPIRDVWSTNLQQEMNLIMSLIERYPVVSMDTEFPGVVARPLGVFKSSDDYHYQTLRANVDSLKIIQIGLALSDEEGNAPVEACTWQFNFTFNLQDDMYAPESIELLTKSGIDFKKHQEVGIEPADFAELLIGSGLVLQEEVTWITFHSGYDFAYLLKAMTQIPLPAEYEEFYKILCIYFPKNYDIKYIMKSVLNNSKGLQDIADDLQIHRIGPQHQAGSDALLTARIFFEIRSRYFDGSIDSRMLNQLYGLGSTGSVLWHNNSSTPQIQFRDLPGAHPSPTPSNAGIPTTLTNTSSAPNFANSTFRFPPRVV

[2] = target: T1, Caf1 (StrepII-tagged, recombinant, S. pombe) (S. pombe); experiment: co-purification (Strep-Tactin affinity, anion exchange, size exclusion chromatography); subunits co-expressed from a single baculovirus in Sf9 cells; captured by the StrepII tag on Caf1; HEPES pH 8.0, 150 mM NaCl, 2 mM Mg(OAc)2; SDS-PAGE of the purified complex
[3] = target: T2, Caf1 of the recombinant Caf1-Ccr4 nuclease module (UniProt O74856); experiment: SEC; purified recombinant Caf1-Ccr4 heterodimeric complex; both purified
T2 sequence: T1 sequence

binding [1]: binds | binding [2]: binds
Molecule: Not1 (recombinant, S. pombe) (from UniProt P87112 1-2100)

binding [1]: binds | binding [2]: binds
B1: Rcd1 (recombinant, S. pombe) (protein, UniProt Q92368 1-283)
chain: MENLESPNYEPALVYEWIIQLVSGTSREQALVELSRKREQYEDLALILWHSYGVMTALLQEIISVYPLLNPPTLTGPTSNRVCNALALLQCIASHPETRIHFLNAHITLFLYPFLNTLSKSKPFEYLRLTSLGVIGALVKNDSPEVINFLLSTEIIPLCLRIMENGSELSKTVAIFIVQKFLCDDVGLQYICQTYERFYAVASVLNNMVMQLVDSFAFRLLKHVIRCYLRLSDNPRAREALRHCLPEPLRDATFAQVLKDDHNTKKCLAQLLINLSDVAVVNQ

binding [1]: binds | binding [2]: binds
B2: Not2 (recombinant, S. pombe) (protein, UniProt P87240 1-306)
chain: MSLANRLSHLNITGGNDFKASIGPSVGRQNEATNPWSSTSHSLENSAATVVNELQTTKEQKTPEQSTTANPLFPGNDFSDFNNHKSKLLGVITGKSTPSSQAEKSDTTNSKTGSTEELTETPADENAKQYMLESLLPIIRMEDSEMSTLQLGCDLAALGFDLAPVEEDRLISTNLFSPWAELNTKKPVSQPMFKLPACYKNVNPPPAISKIFQFSDETLFYIFYTMPRDVMQEAAAQELTNRNWRFHKELRVWLTPVPGMKPLQRTPQFERGYYMFFDPIHWKRIKKDFLLMYAALEDRAQSAVHS

binding [1]: binds | binding [2]: binds
B3: Not3 (recombinant, S. pombe) (protein, UniProt O13870 1-640)
chain: MSARKLQVEIEKTFKKVTDGIAIFDEVYEKLSASNSVSQKEKLEGDLKTQIKKLQRLRDQIKTWASSNDIKDKKALLENRRLIEAKMEEFKAVEREMKIKAFSKEGLSIASKLDPKEKEKQDTIQWISNAVEELERQAELIEAEAESLKATFKRGKKDLSKLSHLSELESRIERHKWHQDKLELIMRRLENSQISPEAVNDIQEDIMYYVECSQSEDFAEDENLYDELNLDEASASYDAERSGRSSSSSHSPSPSASSSSSSENLLQDKAEAEEKVSADASVQDIAEKESLDADKELATNDQEDDEEENQAETQKDGAISNNENMQSEVQTTNPSASTSAVTNITKPTLIQNPSTPLSVSNSKVASPETPNATHTAPKVEMRYASAAAAAAAALAKESPSHHYIMQQVRPETPNSPRLNSTVIQSKWDSLGHTASPKMQTQPVRSVSQSSATTETNVKPTKEENADVPVSSPDYLKDLVNALNTSKEQHKGAIDKEKLTEALNISCVYVPDATDAAKPQYYIPKDPYPVPHYYPQQPLPLFDSSEMTELVDPDTLFYMFYYRPGTYQQYIAGQELKKQSWRFHKKYTTWFQRHEEPKMITDEFESGSYRYFDFEGDWVQRKKADFRFTYQYLEDDDDWTR

binding [1]: binds | binding [2]: binds
B4: Ccr4 (recombinant, S. pombe) (enzyme, UniProt O74874 1-690)
chain: MFNPRYTQGTIYPGAHPGLLTPDHQHAAILSVQNSPALENSNISEHWKQQIALATQSRSFSSPHQRAHNAAALARSGGPGFSMNYNARTGAFTGGPNAAGLSSLGGKYNTSSTTTTLTTSTTLNTSSGTTLNSTSKTTTSSVAVDDQKSKSDSKKERRDWTCLDLGGIGLRNVSTDLFKFSFLTELYINHNNLTRLPPEIGKLKNLVILDASGNSIKTIPPELGLLTELREVLLFDNMISVIPAELGTLFQLKILGIEGNPLQDVYKNQIMESGTAGLIAALRDGCPVGPPPPERGWEKLVSDDDDDVNDNVSTSVRDLTAADSNKPSTTSKNLKFTIMSYNVLCERYATSTLYGYTPSWALSWSYRKDLIMQELGGYNADIICLQEVDVENYDTFFAPQMSLKGYKGVHFPKSRVRTMNEVERRIVDGCATFFKTSKYVMHEKMVIEYNQAPSLRRQDIKLTSNMYNRVMTKDNISVITLLENKENGSRLIVANCHIHWDPQFRDVKVIQVAMLMDEIAQVATKFRNMPSKIPSDQLKDERPTYPEYLKIPILICGDFNSVQGSGVYDFLSSGSISQNHEDFMNNDYGEYTVNGRSHAFNLKSAYGESEALSFTNYTPGFKGAIDHIWYTGNSLEVTGLLKGVDKDYLSGVVGFPNAHFPSDHICLLAEFKVKQEKTPLPSSKFNNDKK

binding [3]: binds
B5: Ccr4 of the recombinant Caf1-Ccr4 nuclease module (enzyme, UniProt O74874 1-690)
chain: B4 chain
